From article PMC4297356
Results are given in words; binding and its absence hold for the method and conditions named. Binding seen in cells or lysates may run through a third protein. Sequences can lack the tags named with a protein.

Biological target: T1, Vipp1–GFP (Synechocystis Vipp1 tagged with green fluorescent protein at the C-terminus) (Synechocystis sp. PCC6803) (UniProt Q55707)
T1 sequence: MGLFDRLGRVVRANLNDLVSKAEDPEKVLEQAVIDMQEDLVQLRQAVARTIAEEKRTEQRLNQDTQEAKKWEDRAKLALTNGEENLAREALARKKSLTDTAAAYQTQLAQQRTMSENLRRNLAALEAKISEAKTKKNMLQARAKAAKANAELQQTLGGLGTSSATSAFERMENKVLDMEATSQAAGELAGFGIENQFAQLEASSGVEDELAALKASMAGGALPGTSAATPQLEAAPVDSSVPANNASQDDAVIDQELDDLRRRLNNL
Assay: co-IP; anti-GFP microbeads (μMACS column) on lysates of HL-treated Synechocystis vipp1–gfp, futA1–gfp and wild-type cells; GFP affinity-bound fraction immunoblotted

binding: no binding
Substance: Slr1768 protein
